Values from PubChem BioAssay AID504774 (Drosophila RNAi Screening Center, 2011)

Screen: 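Genes required for cells to withstand methyl methanesulphonate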 (primary screen)
Cell system: Drosophila Kc167 cells
Reagents: long dsRNA against Drosophila genes, about 0.25 µg dsRNA per well
Timing: about 6 days: 3 days knock-down, then 3 days with or without MMS
Treatment: methyl methanesulphonate 0.004% (w/v) for 3 days after knock-down
Read-out: 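ATP-dependent luminescence as a measure of live cells in MMS-exposed wells, quantile normalised within each plate, with replicate values also given as a mean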
Scale: mean viability with MMS: higher = more surviving cells after MMS
In all, the deposit lists about 23,000 reagents; below is an unselected part of those that have a named target and a result. 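Values are quantile-normalised luminescence on an arbitrary scale; higher means more cells surviving MMS.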 Not all columns of the deposit are shown.

mean viability with MMS, by gene and reagent
CG17601: DRSC20639 3.50e6
CG13130 (retired record): DRSC02226 3.59e6
CG10459: DRSC05991 3.52e6; DRSC22092 3.36e6
CG42675: DRSC12157 3.45e6; DRSC21868 3.48e6
CG15754: DRSC19719 3.48e6
CG3339: DRSC13821 3.61e6; DRSC15479 3.43e6
CG13482: DRSC10024 3.79e6
Best2 (Bestrophin 2): DRSC09712 3.51e6
Dyrk3 (Dual-specificity tyrosine phosphorylation-regulated kinase 3): DRSC21055 3.51e6
CG31872: DRSC02568 3.38e6; DRSC02572 3.36e6
Or2a (Odorant receptor 2a): DRSC18690 3.33e6
Opa1 (Optic atrophy 1): DRSC07191 3.58e6
CG32727: DRSC17519 3.59e6
lin-52: DRSC18106 3.66e6
Eip74EF (Ecdysone-induced protein 74EF): DRSC10613 2.97e6; DRSC11160 3.48e6
Mos (Mos oncogene): DRSC07258 3.46e6
Nepl12 (Neprilysin-like 12): DRSC16411 4.04e6
CG8545: DRSC07210 3.53e6
Notum: DRSC09959 3.45e6
Hel25E (Helicase at 25E): DRSC03342 2.94e6
CR15821 (pseudo): DRSC08481 3.60e6
Slu7: DRSC14729 3.23e6
Cyt-c-d (Cytochrome c distal): DRSC03309 3.49e6

Entries above whose gene name begins with E or e:
mean viability with MMS, by gene and reagent
Eip74EF (Ecdysone-induced protein 74EF): DRSC10613 2.97e6; DRSC11160 3.48e6
